Not every detail of the peptide structures is certain; ends, links or a residue may be inferred. Starred links: 1 amine or outer side, 2 acyl side, 3 side chain; linkers in the order of their positions; H or OH if unused. Residues, ends and D or L forms follow the SMILES beside them. No end group written: not given here. Glutaryl = O=C(CCCC(=O)[*:2])[*:1]
Tested on: perfused stomach of the rat
Assay: Gastrin-like biological activity in the perfused rat stomach
Format: in vivo
Conditions: for biological action/activity relative to the peptide of the formula IV: perfused rat stomach, calculated on molar basis, reference Boc-β-Ala-Trp-Met-Asp-Phe-NH2 (IV)

Row | Compound | biological action/activity relative to the peptide of the formula IV [fold] | biological action compared with pentapeptide IV (comparison in words with pentapeptide IV)
1 | CC(C)C[C@H](NC(=O)[C@H](Cc1c[nH]c2ccccc12)NC(=O)CNC(=O)[C@H](Cc1ccc(O)cc1)NC(=O)[C@H](C)NC(=O)CCCC(=O)O)C(=O)N[C@@H](CC(=O)O)C(=O)N[C@@H](Cc1ccccc1)C(N)=O [Example 1, Glutaroyl--Ala--Tyr--Gly--Trp--Leu--Asp--Phe--NH2] (Glutaryl-AYGWLDF-NH2) | 3 | 
2 | CSCC[C@H](NC(=O)[C@H](Cc1c[nH]c2ccccc12)NC(=O)CNC(=O)[C@H](Cc1ccc(O)cc1)NC(=O)[C@H](C)NC(=O)CCCC(=O)O)C(=O)N[C@@H](CC(=O)O)C(=O)N[C@@H](Cc1ccccc1)C(N)=O [Example 2, Glutaroyl-Ala-Tyr-Gly-Trp-Met-Asp-Phe-NH2] (Glutaryl-AYGWMDF-NH2) | 1.3 | 
3 | AYGWMDF-NH2 |  | comparable to that of the peptide IV
